From US20070299043A1, “Anti-scarring drug combinations and use thereof” (priority 2005, published 2007)
For some assays here: For at least one compound, name, drawing or mass did not settle the structure. Some entries share one result that the patent states for a list of compounds.

Legend:
[1] = test system: carrageenan-induced paw edema; experiment: Rat carrageenan-induced paw edema model, paw volume; type: in vivo; details: MePredAc alone, 0.01, 0.03 or 0.1 mg/kg
Method: A dose-range finding study was performed to determine the anti-inflammatory activity of various ratios of methyl prednisolone acetate and amoxapine in a rat carrageenan-induced paw edema model. […] The molar ratio of methyl prednisolone acetate to amoxapine ranged from 1:1 to 1:300, using total doses of methyl prednisolone acetate of 0.01, 0.03 or 0.1 mg/kg.
The test agent (a combination of methyl prednisolone acetate and amoxapine), vehicle control, or reference agents (methyl prednisolone acetate, amoxapine, or Depo-Medrol®) were administered in the left hind foot pad of rats. After 60 minutes, paw edema was induced by injection of 100 μl of 1% carrageenan in the same foot pad. The paw volume was measured with a water displacement plethysmometer immediately prior to test agent injection (T−1h), at the time of carrageenan injection (T0h), and at T6h. Animals were euthanized by carbon dioxide inhalation. Paw tissue samples were collected and flash frozen in liquid nitrogen. Samples were assayed for TNF-α by enzyme-linked immunoassay (ELISA).

collagenase = type: cell-based; details: pre-incubation of chondrocytes 6 hours, then IL-1 20 ng/ml 18 hours

Row | Structure (SMILES) | paw edema, dose dependence [1] | concentration that prevented IL-1-induced collagenase expression (as low as) (collagenase)
1 | CC(=O)OCC(=O)[C@@]1(O)CC[C@H]2[C@@H]3C[C@H](C)C4=CC(=O)C=C[C@]4(C)[C@H]3[C@@H](O)C[C@@]21C [methyl prednisolone acetate (MePredAc), methylprednisolone acetate] | dose-dependent reduction in paw edema | –
2 | CCOC(=O)CN [glycine ethyl ester] | – | ≥ 100 nM
